Experimental data taken from publication PMC10486081.

Amino acid sequences for entries named in this document (tags omitted).
UniProt O95835: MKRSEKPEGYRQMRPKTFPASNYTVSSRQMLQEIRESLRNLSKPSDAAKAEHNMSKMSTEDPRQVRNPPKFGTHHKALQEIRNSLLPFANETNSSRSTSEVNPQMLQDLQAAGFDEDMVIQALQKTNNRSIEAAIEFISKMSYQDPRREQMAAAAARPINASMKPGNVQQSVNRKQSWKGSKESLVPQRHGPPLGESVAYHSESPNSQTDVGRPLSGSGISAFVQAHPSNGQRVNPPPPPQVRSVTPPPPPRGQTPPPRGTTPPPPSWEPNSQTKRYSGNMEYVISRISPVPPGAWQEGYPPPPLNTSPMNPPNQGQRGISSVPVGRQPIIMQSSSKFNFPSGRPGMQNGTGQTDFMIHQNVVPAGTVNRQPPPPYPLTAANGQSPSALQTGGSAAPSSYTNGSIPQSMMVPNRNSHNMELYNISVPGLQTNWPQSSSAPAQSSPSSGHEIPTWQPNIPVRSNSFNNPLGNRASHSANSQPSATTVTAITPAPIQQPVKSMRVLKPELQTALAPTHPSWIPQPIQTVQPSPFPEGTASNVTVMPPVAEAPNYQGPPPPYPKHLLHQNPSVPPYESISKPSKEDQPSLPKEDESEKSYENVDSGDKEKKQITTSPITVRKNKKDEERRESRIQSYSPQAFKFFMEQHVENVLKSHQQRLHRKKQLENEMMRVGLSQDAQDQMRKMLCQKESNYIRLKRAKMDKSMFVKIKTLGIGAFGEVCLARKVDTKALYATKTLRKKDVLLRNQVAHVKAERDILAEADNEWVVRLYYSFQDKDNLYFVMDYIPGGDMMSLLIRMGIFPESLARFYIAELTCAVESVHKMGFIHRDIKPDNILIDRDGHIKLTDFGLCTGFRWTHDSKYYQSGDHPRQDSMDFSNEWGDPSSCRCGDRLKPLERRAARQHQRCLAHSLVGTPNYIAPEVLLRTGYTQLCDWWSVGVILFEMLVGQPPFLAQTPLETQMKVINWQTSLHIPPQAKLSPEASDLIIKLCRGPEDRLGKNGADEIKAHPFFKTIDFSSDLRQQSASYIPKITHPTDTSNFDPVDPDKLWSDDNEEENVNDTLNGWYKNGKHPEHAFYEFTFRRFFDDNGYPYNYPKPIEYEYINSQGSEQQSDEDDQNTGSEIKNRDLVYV
UniProt O43791: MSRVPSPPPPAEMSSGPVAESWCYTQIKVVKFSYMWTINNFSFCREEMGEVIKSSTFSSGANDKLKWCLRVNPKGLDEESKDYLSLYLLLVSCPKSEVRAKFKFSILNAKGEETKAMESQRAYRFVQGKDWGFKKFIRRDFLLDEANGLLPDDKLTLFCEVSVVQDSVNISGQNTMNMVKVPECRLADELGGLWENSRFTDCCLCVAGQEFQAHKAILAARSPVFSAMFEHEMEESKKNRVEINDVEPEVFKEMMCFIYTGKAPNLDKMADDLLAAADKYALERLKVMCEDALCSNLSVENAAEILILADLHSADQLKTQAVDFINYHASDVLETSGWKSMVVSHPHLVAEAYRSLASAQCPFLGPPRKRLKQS

Biological target: LATS1 (Large tumor suppressor kinase 1), endogenous in bladder cancer cells (human (endogenous in T24)) (UniProt O95835)
Assay: affinity purification with mass spectrometry; IP with LATS1 antibodies in T24 cells followed by mass spectrometric detection

SPOP (speckle-type POZ, E3 ubiquitin ligase adapter), endogenous in bladder cancer cells (from UniProt O43791 1-374)
binding: binds

Results are given in words; binding and its absence hold for the method and conditions named. In cells and extracts the contact can be indirect. These calls come from enrichment with a bait or labelling near it, and not all partners need be listed.
